# Laboratory results published in the supplement of paper PMC9015667.
# Counter-ions that a name gives are not always drawn. The list shows a part of the results. Most values come without repeats; read them as rough.
# Test system: M238P (parental melanoma line)
# Test: reduction in cell viability relative to untreated/vehicle; higher = more growth inhibition
# Conditions: 200 nM; 72 h
row,Structure (SMILES),reduction in cell viability
1,O=c1[nH]c(=O)n([C@H]2C[C@H](O)[C@@H](CO)O2)cc1C(F)(F)F [Trifluridine],< 0%
2,C[C@@H](Oc1cc(-n2cnc3ccc(CN4CCN(C)CC4)cc32)sc1C(N)=O)c1ccccc1C(F)(F)F,45%
3,Cc1ccc(S(=O)(=O)N[C@@H](Cc2ccccc2)C(=O)CCl)cc1,< 0%
4,Cn1cc(C2=C(c3ccc(Cl)cc3Cl)C(=O)NC2=O)c2ccccc21,< 0%
5,CCc1c2c(nc3ccc(O)cc13)-c1cc3c(c(=O)n1C2)COC(=O)[C@]3(O)CC,72%
6,CCC1(c2ccccc2)C(=O)NCNC1=O [Primidone],< 0%
7,O=C1CN2Cc3c(ccc(Cl)c3Cl)N=C2N1 [anagrelide],< 0%
8,O=NN(CCCl)C(=O)NC1CCCCC1 [Lomustine],< 0%
9,COC(=O)Nc1nc2cc(C(=O)c3ccccc3)ccc2[nH]1 [Mebendazole],45.8%
10,O=C(c1ccc(F)c(F)c1Nc1ccc(I)cc1F)N1CC(O)([C@@H]2CCCCN2)C1,33%
11,NC(=O)c1ccc(I)c([N+](=O)[O-])c1 [Iniparib],< 0%
12,CCn1c(=O)c2c(nc(/C=C/c3ccc(OC)c(OC)c3)n2C)n(CC)c1=O [Istradefylline],< 0%
13,Cc1ccc2c(=O)c3cccc(CC(=O)O)c3oc2c1C [Vadimezan],< 0%
14,Cc1cc(C(C)Nc2ccccc2)c2nc(N3CCOCC3)cc(=O)n2c1 (centres undefined),< 0%
15,O=NN(CCCl)C(=O)NCCCl [Carmustine],< 0%
16,NC(=O)[C@@H](CCC(F)(F)F)N(Cc1ccc(-c2ncon2)cc1F)S(=O)(=O)c1ccc(Cl)cc1 [Avagacestat],< 0%
17,CNCCCC12CCC(c3ccccc31)c1ccccc12 [Maprotiline hydrochloride],< 0%
18,COc1ccc(/C=C\c2cc(OC)c(OC)c(OC)c2)cc1NC(=O)[C@@H](N)CO [Ombrabulin],62.4%
19,COc1ccc(-c2nc(N3CCOCC3)c3sc(CN(C)c4ncc(C(=O)NO)cn4)cc3n2)cn1,< 0%
20,Cc1cn2cc(C(=O)N(C)CCO)cc(N[C@@H]3CCOc4cccc(C)c43)c2n1,< 0%

# Eight of the compounds above, as tab-separated lines:
row	Structure (SMILES)	reduction in cell viability
2	C[C@@H](Oc1cc(-n2cnc3ccc(CN4CCN(C)CC4)cc32)sc1C(N)=O)c1ccccc1C(F)(F)F	45%
3	Cc1ccc(S(=O)(=O)N[C@@H](Cc2ccccc2)C(=O)CCl)cc1	< 0%
8	O=NN(CCCl)C(=O)NC1CCCCC1 [Lomustine]	< 0%
9	COC(=O)Nc1nc2cc(C(=O)c3ccccc3)ccc2[nH]1 [Mebendazole]	45.8%
11	NC(=O)c1ccc(I)c([N+](=O)[O-])c1 [Iniparib]	< 0%
13	Cc1ccc2c(=O)c3cccc(CC(=O)O)c3oc2c1C [Vadimezan]	< 0%
17	CNCCCC12CCC(c3ccccc31)c1ccccc12 [Maprotiline hydrochloride]	< 0%
19	COc1ccc(-c2nc(N3CCOCC3)c3sc(CN(C)c4ncc(C(=O)NO)cn4)cc3n2)cn1	< 0%

# The results go on:

row,Structure (SMILES),reduction in cell viability
1,CC1(C)NC(=O)N(c2ccc([N+](=O)[O-])c(C(F)(F)F)c2)C1=O [Nilutamide],< 0%
2,COc1ccc(OC)c(-c2nnc3ccc(-c4ccc(OC)c(O[C@@H]5CCOC5)c4)nn23)c1,< 0%
3,O=c1ccn([C@@H]2O[C@H](CO)[C@@H](O)[C@H]2O)c(=O)[nH]1 [Uridine],< 0%
4,Cc1ccc(C(=O)Nc2cccc(C(F)(F)F)c2)cc1Nc1nc(-c2cccnc2)nc2c1cnn2C,< 0%
5,Oc1cc(O)c(Cl)cn1 [Gimeracil],< 0%
6,C[C@H]1O[C@@H](O[C@H]2[C@@H](O)C[C@H](O[C@H]3[C@@H](O)C[C@H](O[C@H]4CC[C@@]5(C)[C@H](CC[C@@H]6[C@@H]5C[C@@H](O)[C@]5(C)[C@@H](C7=CC(=O)OC7)CC[C@]65O)C4)O[C@@H]3C)O[C@@H]2C)C[C@H](O)[C@@H]1O [Digoxin],69.4%
7,COc1cc(C(=O)NS(=O)(=O)c2ccccc2C)ccc1Cc1cn(C)c2ccc(NC(=O)OC3CCCC3)cc12 [Zafirlukast],< 0%
8,Cn1cnc2c(F)c(Nc3ccc(Br)cc3F)c(C(=O)NOCCO)cc21,32.8%
9,O=C(/C=C/c1cccc(S(=O)(=O)Nc2ccccc2)c1)NO [Belinostat],8.29%
10,CN(C)c1nc(N(C)C)nc(N(C)C)n1 [Altretamine],< 0%
11,COc1ccc2ccc(=O)oc2c1CC=C(C)C [Ostol],< 0%
12,CN1CC(=O)N2[C@H](c3ccc4c(c3)OCO4)c3[nH]c4ccccc4c3C[C@@H]2C1=O [Tadalafil],< 0%
13,OC(c1cc(C(F)(F)F)nc2c(C(F)(F)F)cccc12)C1CCCCN1 (centres undefined) [Mefloquine],4.48%
14,CN1CCN(c2ccc3nc(-c4c(N)c5c(F)cccc5[nH]c4=O)[nH]c3c2)CC1 [Dovitinib],33.5%
15,c1ccc([C@H]2CN3CCSC3=N2)cc1 [L-tetramisol],< 0%
16,COc1ncc(-c2ccc3nccc(-c4ccnnc4)c3c2)cc1NS(=O)(=O)c1ccc(F)cc1F,55.2%
17,CNC(=O)c1ccc2cc([C@@]3(O)CCn4cncc43)ccc2c1 [Orteronel],< 0%
18,O=c1c(O)c(-c2ccc(O)cc2)oc2cc(O)cc(O)c12 [Kaempferol],< 0%
19,Clc1ccc(COC(Cn2ccnc2)c2ccc(Cl)cc2Cl)cc1 (centres undefined) [Econazole nitrate],< 0%
